The other results are listed elsewhere or left out.
Key:
Assay in all cases: log2 fold change, soluble protein after heating vs DMSO (PISA); higher = thermal stabilisation; K562 lysate, 10 uM; active = over 0.2 and 3.5 SD of the protein, either way, in both replicates (recomputed)
[1] = compound: NCC(=O)Nc1ccc(-n2nc(C(F)(F)F)cc2-c2ccc3c(ccc4ccccc43)c2)cc1
Method in brief: (§1)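 Soluble protein was defined as the supernatant remaining after 21,000xg for 90 min, following pooling of heated aliquots and adjustment to 0.5% NP-40 at 4°C. Before that, crude K562 extract at 1 mg/mL protein in PBS pH 7.4 with 1 mM MgCl2 was treated with 10 μM compound for 30 min and heated for 3 min across 48°C-58°C. Quantification used TMTpro 16plex LC-MS/MS with channel sums equalised, and values are log-two fold changes in thermal stability relative to solvent controls from duplicates.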

Sequences of proteins named here, by UniProt entry; tags and fusion partners are left off. A change or cut given only in a name is not applied to a line headed by its entry.
UniProt Q15058: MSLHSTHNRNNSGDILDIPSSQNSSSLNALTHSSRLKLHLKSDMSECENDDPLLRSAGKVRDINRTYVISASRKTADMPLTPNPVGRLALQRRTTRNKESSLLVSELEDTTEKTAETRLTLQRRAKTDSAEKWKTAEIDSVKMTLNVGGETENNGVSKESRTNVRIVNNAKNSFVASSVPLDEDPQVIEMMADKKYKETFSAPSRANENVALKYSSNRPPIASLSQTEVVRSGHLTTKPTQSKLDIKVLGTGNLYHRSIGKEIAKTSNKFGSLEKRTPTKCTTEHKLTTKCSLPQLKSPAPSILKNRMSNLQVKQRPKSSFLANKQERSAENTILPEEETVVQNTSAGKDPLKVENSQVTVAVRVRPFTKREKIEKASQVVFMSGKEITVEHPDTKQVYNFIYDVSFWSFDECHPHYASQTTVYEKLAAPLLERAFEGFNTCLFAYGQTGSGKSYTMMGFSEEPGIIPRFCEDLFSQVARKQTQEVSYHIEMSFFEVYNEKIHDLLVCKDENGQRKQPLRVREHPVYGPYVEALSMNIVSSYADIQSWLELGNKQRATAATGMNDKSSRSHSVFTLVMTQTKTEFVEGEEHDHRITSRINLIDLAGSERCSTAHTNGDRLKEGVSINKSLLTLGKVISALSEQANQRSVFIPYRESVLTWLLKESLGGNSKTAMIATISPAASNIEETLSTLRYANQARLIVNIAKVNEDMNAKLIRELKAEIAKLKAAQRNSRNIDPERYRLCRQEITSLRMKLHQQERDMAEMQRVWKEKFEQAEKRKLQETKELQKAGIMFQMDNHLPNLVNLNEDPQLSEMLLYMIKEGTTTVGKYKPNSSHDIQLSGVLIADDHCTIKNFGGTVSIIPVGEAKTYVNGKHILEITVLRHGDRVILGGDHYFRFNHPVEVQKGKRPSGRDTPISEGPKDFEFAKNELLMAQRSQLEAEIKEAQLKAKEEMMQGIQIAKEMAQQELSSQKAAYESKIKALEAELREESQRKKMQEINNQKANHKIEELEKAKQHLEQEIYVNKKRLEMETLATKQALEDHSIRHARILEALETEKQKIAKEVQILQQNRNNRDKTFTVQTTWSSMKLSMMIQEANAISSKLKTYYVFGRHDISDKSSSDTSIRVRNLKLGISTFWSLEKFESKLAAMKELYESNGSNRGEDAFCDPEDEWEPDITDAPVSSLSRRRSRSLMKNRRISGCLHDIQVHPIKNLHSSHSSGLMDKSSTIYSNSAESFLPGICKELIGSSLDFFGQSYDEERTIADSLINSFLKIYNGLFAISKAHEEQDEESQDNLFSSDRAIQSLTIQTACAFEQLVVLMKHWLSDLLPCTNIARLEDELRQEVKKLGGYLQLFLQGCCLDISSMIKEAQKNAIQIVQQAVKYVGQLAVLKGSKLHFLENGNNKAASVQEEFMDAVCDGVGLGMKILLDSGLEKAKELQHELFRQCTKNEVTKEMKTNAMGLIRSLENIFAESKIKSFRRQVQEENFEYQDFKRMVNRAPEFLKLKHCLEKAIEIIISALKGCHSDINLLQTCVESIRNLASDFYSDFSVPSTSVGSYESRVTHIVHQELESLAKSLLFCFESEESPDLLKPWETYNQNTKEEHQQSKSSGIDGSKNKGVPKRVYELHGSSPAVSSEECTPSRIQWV
UniProt P52294, whole entry, looked up: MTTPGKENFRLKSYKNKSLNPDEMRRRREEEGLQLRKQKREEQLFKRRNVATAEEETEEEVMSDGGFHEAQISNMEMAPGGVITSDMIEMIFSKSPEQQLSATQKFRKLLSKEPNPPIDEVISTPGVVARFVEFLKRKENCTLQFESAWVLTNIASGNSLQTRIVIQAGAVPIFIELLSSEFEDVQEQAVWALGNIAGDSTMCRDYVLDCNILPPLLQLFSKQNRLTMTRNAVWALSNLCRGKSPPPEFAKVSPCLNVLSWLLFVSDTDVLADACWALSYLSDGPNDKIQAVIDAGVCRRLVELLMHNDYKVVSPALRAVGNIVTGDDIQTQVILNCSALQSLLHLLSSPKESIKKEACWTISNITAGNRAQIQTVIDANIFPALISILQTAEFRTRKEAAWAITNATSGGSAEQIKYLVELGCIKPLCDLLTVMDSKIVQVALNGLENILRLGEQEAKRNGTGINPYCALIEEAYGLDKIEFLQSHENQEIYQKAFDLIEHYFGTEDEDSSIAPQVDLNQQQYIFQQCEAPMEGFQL
UniProt Q8IZA0: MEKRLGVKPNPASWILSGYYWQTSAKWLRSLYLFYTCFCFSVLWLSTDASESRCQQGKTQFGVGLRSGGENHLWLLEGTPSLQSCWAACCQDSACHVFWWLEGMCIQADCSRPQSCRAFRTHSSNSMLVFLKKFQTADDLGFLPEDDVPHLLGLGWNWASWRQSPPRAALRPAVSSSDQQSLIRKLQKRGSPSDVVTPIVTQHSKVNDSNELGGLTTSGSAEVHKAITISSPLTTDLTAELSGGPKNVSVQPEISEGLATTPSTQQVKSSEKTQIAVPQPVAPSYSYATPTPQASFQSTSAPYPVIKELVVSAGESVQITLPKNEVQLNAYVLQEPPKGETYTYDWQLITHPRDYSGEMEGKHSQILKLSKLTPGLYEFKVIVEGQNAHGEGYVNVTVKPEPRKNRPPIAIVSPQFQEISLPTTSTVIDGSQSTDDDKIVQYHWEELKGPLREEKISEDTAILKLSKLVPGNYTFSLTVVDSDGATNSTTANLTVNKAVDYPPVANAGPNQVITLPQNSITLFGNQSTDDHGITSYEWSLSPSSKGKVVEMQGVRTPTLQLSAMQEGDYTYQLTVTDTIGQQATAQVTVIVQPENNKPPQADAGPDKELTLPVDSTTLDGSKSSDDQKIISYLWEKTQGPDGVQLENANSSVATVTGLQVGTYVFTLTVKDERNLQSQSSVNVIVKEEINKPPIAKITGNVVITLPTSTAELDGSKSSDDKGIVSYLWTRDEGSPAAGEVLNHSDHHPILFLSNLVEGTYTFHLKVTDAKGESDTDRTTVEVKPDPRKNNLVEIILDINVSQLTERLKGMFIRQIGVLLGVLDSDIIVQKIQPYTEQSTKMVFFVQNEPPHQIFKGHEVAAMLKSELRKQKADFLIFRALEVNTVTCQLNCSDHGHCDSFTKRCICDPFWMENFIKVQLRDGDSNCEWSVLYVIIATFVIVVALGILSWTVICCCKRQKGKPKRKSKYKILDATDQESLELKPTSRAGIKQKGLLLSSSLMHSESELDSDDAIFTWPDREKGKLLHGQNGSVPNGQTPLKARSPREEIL
UniProt Q06136: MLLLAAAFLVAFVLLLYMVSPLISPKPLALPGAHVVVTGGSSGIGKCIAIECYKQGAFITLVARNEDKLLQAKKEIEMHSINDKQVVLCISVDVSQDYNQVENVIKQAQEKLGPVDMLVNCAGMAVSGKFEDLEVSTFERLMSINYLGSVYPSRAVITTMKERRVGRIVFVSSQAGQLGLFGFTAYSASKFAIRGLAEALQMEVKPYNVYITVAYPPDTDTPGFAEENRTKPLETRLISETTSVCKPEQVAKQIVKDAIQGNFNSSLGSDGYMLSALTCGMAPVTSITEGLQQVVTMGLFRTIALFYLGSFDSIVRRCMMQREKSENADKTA
UniProt Q8IVT5: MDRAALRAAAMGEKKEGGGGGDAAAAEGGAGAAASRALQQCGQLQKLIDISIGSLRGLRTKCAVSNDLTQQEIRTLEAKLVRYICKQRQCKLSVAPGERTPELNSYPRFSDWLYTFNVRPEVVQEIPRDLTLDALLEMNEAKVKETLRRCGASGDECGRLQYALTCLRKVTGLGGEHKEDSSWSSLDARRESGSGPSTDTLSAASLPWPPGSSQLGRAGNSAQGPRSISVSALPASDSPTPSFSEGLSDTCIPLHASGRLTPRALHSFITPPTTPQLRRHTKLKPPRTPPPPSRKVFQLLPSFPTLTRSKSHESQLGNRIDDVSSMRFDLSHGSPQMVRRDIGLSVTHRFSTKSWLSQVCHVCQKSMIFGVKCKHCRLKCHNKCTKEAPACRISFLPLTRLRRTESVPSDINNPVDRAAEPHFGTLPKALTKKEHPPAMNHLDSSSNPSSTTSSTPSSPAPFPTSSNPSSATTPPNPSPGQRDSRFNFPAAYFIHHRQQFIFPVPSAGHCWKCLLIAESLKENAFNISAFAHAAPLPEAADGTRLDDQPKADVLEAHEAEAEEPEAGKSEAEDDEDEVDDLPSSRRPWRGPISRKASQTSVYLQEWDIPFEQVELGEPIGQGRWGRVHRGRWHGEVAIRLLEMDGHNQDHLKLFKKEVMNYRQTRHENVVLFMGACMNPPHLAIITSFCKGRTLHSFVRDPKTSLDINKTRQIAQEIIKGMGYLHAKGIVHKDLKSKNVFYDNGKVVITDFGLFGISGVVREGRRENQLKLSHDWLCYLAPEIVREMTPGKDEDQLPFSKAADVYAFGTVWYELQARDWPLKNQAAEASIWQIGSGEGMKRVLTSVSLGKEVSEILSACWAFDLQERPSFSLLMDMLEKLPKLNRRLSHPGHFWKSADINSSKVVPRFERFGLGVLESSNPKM
UniProt Q14145, whole entry, looked up: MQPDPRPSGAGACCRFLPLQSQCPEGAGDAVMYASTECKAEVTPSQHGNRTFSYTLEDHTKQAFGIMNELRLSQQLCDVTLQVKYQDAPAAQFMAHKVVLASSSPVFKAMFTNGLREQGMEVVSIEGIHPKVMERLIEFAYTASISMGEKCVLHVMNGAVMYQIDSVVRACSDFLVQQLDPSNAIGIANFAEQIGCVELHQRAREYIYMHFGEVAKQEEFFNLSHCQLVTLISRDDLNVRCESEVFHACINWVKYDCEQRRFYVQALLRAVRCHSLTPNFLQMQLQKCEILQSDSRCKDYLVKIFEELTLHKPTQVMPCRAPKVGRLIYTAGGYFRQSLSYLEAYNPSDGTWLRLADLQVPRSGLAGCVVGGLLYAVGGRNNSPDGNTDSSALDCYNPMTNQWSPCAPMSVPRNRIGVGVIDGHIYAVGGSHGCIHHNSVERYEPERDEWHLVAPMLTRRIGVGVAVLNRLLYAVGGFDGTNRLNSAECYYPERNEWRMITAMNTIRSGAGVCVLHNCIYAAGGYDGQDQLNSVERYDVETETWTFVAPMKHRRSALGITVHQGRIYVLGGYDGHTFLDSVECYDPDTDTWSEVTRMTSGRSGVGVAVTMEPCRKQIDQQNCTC
UniProt P28838: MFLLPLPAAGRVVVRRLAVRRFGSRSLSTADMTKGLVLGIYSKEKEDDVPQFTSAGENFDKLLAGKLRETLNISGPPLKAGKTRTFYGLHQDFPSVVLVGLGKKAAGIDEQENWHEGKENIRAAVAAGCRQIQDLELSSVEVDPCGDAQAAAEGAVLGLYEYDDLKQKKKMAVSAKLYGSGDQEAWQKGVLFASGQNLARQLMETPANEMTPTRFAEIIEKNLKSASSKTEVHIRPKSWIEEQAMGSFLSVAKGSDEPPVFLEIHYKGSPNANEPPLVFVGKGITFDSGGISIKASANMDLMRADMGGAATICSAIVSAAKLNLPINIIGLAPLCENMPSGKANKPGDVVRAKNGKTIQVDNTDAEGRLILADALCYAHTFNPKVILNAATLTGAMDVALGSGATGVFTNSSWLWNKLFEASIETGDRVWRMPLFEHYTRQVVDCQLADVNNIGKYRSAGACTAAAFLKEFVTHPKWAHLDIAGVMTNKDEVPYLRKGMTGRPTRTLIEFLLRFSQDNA
UniProt Q96EK9: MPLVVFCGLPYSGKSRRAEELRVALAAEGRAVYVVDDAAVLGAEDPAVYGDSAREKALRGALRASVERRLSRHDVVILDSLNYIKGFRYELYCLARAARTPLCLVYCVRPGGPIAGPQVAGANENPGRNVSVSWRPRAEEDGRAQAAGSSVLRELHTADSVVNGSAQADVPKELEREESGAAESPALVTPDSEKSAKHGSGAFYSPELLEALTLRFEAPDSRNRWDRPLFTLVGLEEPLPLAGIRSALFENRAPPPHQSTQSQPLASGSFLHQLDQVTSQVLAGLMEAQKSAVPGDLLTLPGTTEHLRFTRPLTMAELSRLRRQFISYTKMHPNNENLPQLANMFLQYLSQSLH

vorinostat = compound: O=C(CCCCCCC(=O)Nc1ccccc1)NO [vorinostat]
Method in brief: as §1

silmitasertib = compound: O=C(O)c1ccc2c(c1)nc(Nc1cccc(Cl)c1)c1ccncc12 [silmitasertib]
Method in brief: as §1

[2] = compound: O=C1NC(=O)C(c2cnc3ccccn23)=C1c1cn2c3c(cc(F)cc13)CN(C(=O)N1CCCCC1)CC2
Method in brief: as §1

entospletinib = compound: c1cn2cc(-c3ccc4cn[nH]c4c3)nc(Nc3ccc(N4CCOCC4)cc3)c2n1 [entospletinib]
Method in brief: as §1

| Target | log2 fold change [1] | log2 fold change (vorinostat) | log2 fold change (silmitasertib) | log2 fold change [2] | log2 fold change (entospletinib) |
| --- | --- | --- | --- | --- | --- |
| KIF14 (UniProt Q15058) | inactive: 0.082 | active: -0.286 | inactive: -0.016 | inactive: -0.019 | inactive: -0.055 |
| L1RE1 (UniProt Q9UN81) | inactive: 0.052 | inactive: 0.138 | inactive: 0.006 | inactive: 0.054 | inactive: 0.058 |
| KPNA1 (UniProt P52294) | inactive: 0.004 | inactive: -0.14 | inactive: -0.003 | inactive: -0.032 | inactive: -0.006 |
| KLHDC2 (UniProt Q9Y2U9) | inactive: -0.071 | inactive: 0.145 | inactive: -0.039 | inactive: 0.181 |  |
| KIAA1324L (UniProt A8MWY0) | inactive: -0.013 | inactive: 0.08 | inactive: -0.004 | inactive: 0.036 | inactive: -0.017 |
| KLHDC3 (UniProt Q9BQ90) | inactive: -0.098 | inactive: -0.026 | inactive: 0.116 | inactive: 0.013 | inactive: 0.103 |
| KIAA0319L (UniProt Q8IZA0) | inactive: -0.002 | inactive: 0.116 | inactive: -0.002 | inactive: -0.008 | inactive: -0.027 |
| KPNA6 (UniProt O60684) | inactive: -0.065 | inactive: -0.182 | inactive: 0.068 | inactive: -0.005 | inactive: -0.021 |
| KYNU (UniProt Q16719) | inactive: -0.023 | inactive: 0.14 | inactive: 0 | inactive: 0.112 | inactive: 0.006 |
| KLHL18 (UniProt O94889) | inactive: 0.027 | inactive: -0.121 | inactive: -0.009 | inactive: -0.144 | inactive: -0.051 |
| KDSR (UniProt Q06136) | inactive: 0.033 | inactive: 0.006 | inactive: -0.066 | inactive: -0.03 | inactive: 0.061 |
| KSR1 (UniProt Q8IVT5) | inactive: 0.029 | active: -0.49 | inactive: 0.081 | inactive: 0.031 | inactive: -0.025 |
| KIF3B (UniProt O15066) | inactive: 0.074 | inactive: 0.005 | inactive: -0.005 | inactive: 0.025 | inactive: -0.119 |
| L3HYPDH (UniProt Q96EM0) | inactive: 0.023 | active: -0.31 | inactive: 0 | inactive: -0.02 | inactive: -0.005 |
| KIFBP (UniProt Q96EK5) | inactive: 0.019 | inactive: -0.176 | inactive: 0.104 | inactive: -0.049 | inactive: -0.009 |
| KYAT3 (UniProt Q6YP21) | inactive: -0.017 | inactive: 0.107 | inactive: -0.022 | inactive: 0.036 | inactive: -0.008 |
| KLHL36 (UniProt Q8N4N3) | inactive: 0.059 | inactive: -0.161 | inactive: 0.082 | inactive: -0.037 | inactive: -0.006 |
| LACTB2 (UniProt Q53H82) | inactive: -0.004 | inactive: 0.084 | inactive: -0.02 | inactive: -0.007 | inactive: -0.011 |
| KPNA4 (UniProt O00629) | inactive: 0.006 | inactive: 0.047 | inactive: 0.024 | inactive: 0.02 | inactive: 0.021 |
| KHDRBS1 (UniProt Q07666) | inactive: 0.005 | active: -0.583 | inactive: 0.018 | inactive: 0.016 | inactive: 0.008 |
| KEAP1 (UniProt Q14145) | inactive: -0.019 | active: -0.262 | inactive: -0.008 | inactive: -0.022 | inactive: 0.001 |
| KLF16 (UniProt Q9BXK1) | inactive: 0.169 | inactive: -0.066 | inactive: 0.066 | inactive: -0.006 | inactive: 0.055 |
| LAP3 (UniProt P28838) | inactive: 0.048 | inactive: 0.082 | inactive: -0.104 | inactive: 0.104 | inactive: -0.008 |
| KTI12 (UniProt Q96EK9) | inactive: -0.016 | inactive: -0.119 | inactive: 0.076 | inactive: 0.049 | inactive: -0.057 |
| LAMTOR1 (UniProt Q6IAA8) | inactive: -0.129 | inactive: 0.151 | inactive: 0.011 | inactive: 0.026 | inactive: -0.001 |

Given with tabs: entries from further up.
Target	log2 fold change [1]	log2 fold change (vorinostat)	log2 fold change (silmitasertib)	log2 fold change [2]	log2 fold change (entospletinib)
L1RE1 (UniProt Q9UN81)	inactive: 0.052	inactive: 0.138	inactive: 0.006	inactive: 0.054	inactive: 0.058
KLHDC2 (UniProt Q9Y2U9)	inactive: -0.071	inactive: 0.145	inactive: -0.039	inactive: 0.181	
KIAA1324L (UniProt A8MWY0)	inactive: -0.013	inactive: 0.08	inactive: -0.004	inactive: 0.036	inactive: -0.017
KPNA6 (UniProt O60684)	inactive: -0.065	inactive: -0.182	inactive: 0.068	inactive: -0.005	inactive: -0.021

Source: the supplement of paper PMC10849652
